In the supplement of paper PMC10849652:
The other results are listed elsewhere or left out.

By UniProt entry, the sequences of proteins in these tests, tags left out. Where a name states a change or a piece, a line headed by the entry shows the natural chain unless it says otherwise.
UniProt Q96S82: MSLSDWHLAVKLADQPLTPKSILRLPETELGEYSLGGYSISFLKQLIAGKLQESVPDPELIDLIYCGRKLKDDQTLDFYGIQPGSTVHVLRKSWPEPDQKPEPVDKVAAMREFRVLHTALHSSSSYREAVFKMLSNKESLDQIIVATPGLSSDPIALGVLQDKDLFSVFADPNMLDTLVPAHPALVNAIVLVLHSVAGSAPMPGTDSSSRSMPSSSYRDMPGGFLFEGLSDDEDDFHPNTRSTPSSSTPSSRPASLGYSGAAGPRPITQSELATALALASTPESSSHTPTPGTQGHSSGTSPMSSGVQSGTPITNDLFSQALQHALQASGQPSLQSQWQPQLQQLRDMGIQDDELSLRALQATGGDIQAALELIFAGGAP
UniProt Q92575: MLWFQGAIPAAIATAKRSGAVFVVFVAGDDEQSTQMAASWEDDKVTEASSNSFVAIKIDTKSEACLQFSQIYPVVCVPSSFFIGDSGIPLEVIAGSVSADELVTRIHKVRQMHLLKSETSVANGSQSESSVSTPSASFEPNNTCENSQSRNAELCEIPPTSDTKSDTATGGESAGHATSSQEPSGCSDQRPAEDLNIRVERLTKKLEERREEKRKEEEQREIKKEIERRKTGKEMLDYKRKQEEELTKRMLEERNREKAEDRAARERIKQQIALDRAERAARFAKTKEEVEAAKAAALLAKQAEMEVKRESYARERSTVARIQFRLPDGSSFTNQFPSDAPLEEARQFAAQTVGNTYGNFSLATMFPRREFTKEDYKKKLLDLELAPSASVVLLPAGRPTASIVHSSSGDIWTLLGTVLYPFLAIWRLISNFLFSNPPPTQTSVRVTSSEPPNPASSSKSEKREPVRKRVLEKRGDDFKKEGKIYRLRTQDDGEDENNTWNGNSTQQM
UniProt Q15853: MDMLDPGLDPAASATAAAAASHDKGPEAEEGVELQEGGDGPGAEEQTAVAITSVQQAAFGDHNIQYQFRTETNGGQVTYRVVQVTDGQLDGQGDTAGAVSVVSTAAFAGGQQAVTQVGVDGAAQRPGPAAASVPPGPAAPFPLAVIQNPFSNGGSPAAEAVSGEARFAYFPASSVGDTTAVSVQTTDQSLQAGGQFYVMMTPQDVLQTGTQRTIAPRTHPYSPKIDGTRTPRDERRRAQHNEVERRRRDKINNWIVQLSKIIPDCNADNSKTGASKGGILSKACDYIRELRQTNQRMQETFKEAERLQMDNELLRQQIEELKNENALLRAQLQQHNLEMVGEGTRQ
UniProt Q53GS9: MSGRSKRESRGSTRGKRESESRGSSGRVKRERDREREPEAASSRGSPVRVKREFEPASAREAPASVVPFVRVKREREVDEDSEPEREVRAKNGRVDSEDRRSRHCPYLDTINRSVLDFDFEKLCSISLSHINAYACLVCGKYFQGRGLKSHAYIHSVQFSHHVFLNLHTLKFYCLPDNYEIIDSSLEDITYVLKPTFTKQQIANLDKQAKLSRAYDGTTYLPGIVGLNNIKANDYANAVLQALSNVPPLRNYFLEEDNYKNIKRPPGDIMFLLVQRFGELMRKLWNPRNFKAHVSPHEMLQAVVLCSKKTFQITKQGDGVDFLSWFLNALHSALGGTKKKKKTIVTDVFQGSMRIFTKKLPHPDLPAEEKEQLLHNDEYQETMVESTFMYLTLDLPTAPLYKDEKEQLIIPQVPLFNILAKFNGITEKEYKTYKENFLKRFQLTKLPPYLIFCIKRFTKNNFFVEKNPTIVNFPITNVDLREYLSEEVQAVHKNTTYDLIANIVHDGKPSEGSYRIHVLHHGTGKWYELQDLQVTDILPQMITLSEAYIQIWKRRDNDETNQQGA
UniProt Q9BZX2: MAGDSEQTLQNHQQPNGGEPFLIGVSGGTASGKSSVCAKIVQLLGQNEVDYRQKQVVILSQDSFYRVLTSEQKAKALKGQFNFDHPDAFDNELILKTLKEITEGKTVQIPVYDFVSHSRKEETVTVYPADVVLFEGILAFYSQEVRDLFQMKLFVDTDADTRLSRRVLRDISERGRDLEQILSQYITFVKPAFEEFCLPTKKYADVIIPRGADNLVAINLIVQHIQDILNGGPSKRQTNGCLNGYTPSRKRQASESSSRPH
UniProt Q9NZ43: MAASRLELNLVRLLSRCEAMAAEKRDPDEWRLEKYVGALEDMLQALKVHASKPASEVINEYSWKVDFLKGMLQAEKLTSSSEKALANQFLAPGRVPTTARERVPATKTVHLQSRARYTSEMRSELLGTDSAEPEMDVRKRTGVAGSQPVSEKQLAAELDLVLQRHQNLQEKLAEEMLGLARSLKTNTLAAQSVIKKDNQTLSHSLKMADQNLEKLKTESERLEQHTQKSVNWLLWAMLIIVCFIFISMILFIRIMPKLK
UniProt O95292, whole entry, looked up: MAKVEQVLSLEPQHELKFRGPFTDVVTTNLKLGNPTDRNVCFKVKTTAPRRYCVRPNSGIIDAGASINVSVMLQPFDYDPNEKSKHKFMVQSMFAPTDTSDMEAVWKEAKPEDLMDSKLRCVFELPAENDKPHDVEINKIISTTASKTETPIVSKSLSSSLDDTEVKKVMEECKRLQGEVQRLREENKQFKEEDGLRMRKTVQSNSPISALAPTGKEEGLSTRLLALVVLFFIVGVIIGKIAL
UniProt Q9H3U1: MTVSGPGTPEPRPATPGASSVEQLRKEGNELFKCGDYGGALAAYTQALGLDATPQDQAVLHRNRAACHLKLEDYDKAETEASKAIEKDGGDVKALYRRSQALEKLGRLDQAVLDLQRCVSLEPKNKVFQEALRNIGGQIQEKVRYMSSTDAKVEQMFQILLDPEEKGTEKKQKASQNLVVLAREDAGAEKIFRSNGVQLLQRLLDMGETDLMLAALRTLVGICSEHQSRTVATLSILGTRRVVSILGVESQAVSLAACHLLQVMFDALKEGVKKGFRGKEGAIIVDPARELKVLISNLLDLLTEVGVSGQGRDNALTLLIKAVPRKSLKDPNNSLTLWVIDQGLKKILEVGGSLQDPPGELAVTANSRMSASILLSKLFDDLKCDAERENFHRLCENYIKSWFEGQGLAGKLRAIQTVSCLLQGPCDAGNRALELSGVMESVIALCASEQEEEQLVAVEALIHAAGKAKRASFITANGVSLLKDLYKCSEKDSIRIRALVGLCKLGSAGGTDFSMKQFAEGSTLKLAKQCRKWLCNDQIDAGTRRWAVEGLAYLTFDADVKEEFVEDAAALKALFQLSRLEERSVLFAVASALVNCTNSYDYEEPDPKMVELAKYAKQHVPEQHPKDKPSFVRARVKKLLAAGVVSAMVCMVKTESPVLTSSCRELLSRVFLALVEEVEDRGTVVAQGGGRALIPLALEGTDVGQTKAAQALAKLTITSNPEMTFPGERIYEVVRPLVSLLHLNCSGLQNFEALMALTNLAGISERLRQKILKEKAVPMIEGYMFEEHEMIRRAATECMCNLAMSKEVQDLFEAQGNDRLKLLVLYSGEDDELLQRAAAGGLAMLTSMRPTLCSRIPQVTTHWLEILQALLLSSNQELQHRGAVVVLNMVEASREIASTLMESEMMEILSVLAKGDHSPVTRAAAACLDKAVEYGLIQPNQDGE
UniProt P31930: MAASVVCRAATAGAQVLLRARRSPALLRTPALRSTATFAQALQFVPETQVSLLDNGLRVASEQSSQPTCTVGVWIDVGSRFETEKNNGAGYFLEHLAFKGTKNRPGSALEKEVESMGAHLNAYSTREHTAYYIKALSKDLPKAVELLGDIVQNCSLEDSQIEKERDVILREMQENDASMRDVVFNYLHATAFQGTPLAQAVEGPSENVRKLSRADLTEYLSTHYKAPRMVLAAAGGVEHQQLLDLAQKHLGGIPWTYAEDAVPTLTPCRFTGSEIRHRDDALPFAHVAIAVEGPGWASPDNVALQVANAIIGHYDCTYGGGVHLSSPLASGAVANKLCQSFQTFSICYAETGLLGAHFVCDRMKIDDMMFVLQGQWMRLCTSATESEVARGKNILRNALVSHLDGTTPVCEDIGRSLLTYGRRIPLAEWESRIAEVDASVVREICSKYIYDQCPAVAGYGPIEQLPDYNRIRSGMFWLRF
UniProt Q99536: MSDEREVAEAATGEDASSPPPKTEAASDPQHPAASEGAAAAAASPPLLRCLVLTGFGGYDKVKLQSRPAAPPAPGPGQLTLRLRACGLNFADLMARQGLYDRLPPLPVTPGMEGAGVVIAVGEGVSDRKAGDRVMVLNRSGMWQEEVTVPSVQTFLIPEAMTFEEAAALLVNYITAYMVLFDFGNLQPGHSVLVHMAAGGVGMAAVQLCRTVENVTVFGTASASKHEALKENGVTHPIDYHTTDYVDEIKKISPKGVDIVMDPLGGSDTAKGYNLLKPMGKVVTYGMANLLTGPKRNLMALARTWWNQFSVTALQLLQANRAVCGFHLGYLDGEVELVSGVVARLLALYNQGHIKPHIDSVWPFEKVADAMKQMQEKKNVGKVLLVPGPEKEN
UniProt Q9BRT2: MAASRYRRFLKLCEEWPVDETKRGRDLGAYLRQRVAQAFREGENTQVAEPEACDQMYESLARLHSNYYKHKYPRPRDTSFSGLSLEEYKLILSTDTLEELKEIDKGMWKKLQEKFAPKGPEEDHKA
UniProt P10746: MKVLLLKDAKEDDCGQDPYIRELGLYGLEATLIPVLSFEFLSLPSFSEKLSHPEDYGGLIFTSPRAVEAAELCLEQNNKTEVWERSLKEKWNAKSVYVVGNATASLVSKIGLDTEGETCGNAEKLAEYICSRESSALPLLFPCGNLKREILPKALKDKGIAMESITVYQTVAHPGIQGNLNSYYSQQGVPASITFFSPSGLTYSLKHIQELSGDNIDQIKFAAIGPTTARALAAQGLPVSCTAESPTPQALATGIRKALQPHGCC
UniProt Q9P0L0: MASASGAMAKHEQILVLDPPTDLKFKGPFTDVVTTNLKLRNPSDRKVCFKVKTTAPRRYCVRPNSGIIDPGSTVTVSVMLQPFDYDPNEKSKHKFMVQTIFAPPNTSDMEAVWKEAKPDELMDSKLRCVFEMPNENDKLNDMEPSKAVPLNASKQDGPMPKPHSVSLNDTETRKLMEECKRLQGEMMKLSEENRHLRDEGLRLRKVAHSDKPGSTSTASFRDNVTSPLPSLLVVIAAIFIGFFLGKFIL
UniProt Q9HAU5: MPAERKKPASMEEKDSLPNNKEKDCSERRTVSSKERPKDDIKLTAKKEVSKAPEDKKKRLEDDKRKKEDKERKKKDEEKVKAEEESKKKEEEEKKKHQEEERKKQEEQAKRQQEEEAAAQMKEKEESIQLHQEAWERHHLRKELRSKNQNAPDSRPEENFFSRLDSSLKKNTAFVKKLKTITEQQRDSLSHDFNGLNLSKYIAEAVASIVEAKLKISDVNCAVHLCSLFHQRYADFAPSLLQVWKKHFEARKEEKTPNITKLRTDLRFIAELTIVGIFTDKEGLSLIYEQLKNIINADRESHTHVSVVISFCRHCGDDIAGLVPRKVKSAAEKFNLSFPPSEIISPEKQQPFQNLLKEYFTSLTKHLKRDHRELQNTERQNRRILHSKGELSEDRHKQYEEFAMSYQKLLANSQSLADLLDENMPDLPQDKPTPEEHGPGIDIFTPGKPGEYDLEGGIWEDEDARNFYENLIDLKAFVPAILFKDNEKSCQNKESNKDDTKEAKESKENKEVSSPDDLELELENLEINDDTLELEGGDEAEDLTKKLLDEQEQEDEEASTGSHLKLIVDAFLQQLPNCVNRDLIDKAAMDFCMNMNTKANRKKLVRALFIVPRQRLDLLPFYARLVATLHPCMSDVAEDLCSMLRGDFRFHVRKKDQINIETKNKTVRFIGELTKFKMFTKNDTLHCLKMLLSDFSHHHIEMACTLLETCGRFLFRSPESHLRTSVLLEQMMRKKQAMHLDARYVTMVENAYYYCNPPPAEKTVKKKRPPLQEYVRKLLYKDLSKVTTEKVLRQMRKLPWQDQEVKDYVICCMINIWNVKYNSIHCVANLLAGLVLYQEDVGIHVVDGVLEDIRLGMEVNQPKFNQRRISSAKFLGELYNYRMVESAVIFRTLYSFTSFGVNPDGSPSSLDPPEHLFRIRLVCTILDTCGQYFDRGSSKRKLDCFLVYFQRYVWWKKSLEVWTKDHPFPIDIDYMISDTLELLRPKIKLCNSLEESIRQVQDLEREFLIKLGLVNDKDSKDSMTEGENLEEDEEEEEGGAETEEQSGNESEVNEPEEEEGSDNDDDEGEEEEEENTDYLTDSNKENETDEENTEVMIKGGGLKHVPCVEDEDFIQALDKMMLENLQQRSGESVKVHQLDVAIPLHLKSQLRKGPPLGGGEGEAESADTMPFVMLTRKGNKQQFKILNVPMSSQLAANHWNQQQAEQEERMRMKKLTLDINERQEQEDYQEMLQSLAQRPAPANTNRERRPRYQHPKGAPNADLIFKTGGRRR

Experiments:
Assay in all cases: log2 fold change, soluble protein after heating vs DMSO (PISA); higher = thermal stabilisation; K562 cells, 10 uM, 30 min; active = over 0.2 and 3.5 SD of the protein, either way, in both replicates (recomputed)
[1] = compound: CC[C@@H]1C(=O)N(C)c2cnc(Nc3ccc(C(=O)NC4CCN(C)CC4)cc3OC)nc2N1C1CCCC1
Outline: (§1)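 K562 cells (2×10^6 cells/mL) were treated with 10 μM compound for 30 min, and aliquots were heated for 3 min over 48°C-58°C. Pooled aliquots were extracted in PBS with 0.5% NP-40 at 4°C, and the supernatant after 21,000xg for 90 min was measured by TMTpro 16plex LC-MS/MS with channel sums equalised. Reported thermal stability, relative to control samples and from duplicates, is a log2 fold change.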

volasertib = compound: CC[C@@H]1C(=O)N(C)c2cnc(Nc3ccc(C(=O)N[C@H]4CC[C@H](N5CCN(CC6CC6)CC5)CC4)cc3OC)nc2N1C(C)C [volasertib]
Outline: as §1

[2] = compound: CC[C@H](C)N1C=C(C2=C(C=C(C=C21)C3=CN=C(C=C3)N4CCNCC4)C(=O)NCC5=C(C=C(NC5=O)C)C)C
Outline: as §1

epoxomicin = compound: CC[C@H](C)[C@@H](C(=O)N[C@@H]([C@@H](C)O)C(=O)N[C@@H](CC(C)C)C(=O)[C@]1(CO1)C)NC(=O)[C@H]([C@@H](C)CC)N(C)C(=O)C [epoxomicin]
Outline: as §1

[3] = compound: CCn1c(C(=O)N(C2CC2)C2CC2)cc2c3c(ncn3C)c(Nc3cc(C)n(C)n3)nc21
Outline: as §1

[4] = compound: CCn1cc(-c2ccnc3[nH]c(-c4cccc(CN(C)C)c4)cc23)c(-c2ccc(NC(=O)N(C)C)cc2)n1
Outline: as §1

[5] = compound: CN(C)CC(=O)Nc1ccc2[nH]c(=O)c3ccccc3c2c1
Outline: as §1

rosiglitazone = compound: CN(CCOC1=CC=C(C=C1)C[C@H]2C(=O)NC(=O)S2)C3=CC=CC=N3 (racemic) [rosiglitazone]
Outline: as §1

[6] = compound: CN1C2=C(C3=C1C(=O)N(N=C3)CC4=CC(=CC=C4)N)SC(=C2)S(=O)C
Outline: as §1

[7] = compound: CN1CCC(CNc2ccc3ncc(-c4cccc(OC(F)(F)F)c4)n3n2)CC1
Outline: as §1

saracatinib = compound: CN1CCN(CCOc2cc(OC3CCOCC3)c3c(Nc4c(Cl)ccc5c4OCO5)ncnc3c2)CC1 [saracatinib]
Outline: as §1

sotrastaurin = compound: CN1CCN(c2nc(C3=C(c4c[nH]c5ccccc45)C(=O)NC3=O)c3ccccc3n2)CC1 [sotrastaurin]
Outline: as §1

alvocidib = compound: CN1CC[C@H](c2c(O)cc(O)c3c(=O)cc(-c4ccccc4Cl)oc23)[C@H](O)C1 [alvocidib]
Outline: as §1

Tubastatin A = compound: CN1CCc2c(c3ccccc3n2Cc2ccc(C(=O)NO)cc2)C1 [Tubastatin A]
Outline: as §1

[8] = compound: CNC(=O)C1=CC=CC=C1NC2=NC(=NC=C2Cl)NC3=C(C=C(C=C3)N4CCOCC4)OC
Outline: as §1

defactinib = compound: CNC(=O)c1ccc(Nc2ncc(C(F)(F)F)c(NCc3nccnc3N(C)S(C)(=O)=O)n2)cc1 [defactinib]
Outline: as §1

rucaparib = compound: CNCc1ccc(-c2[nH]c3cc(F)cc4c3c2CCNC4=O)cc1 [rucaparib]
Outline: as §1

[9] = compound: CNc1nc(-c2ccc3c(N)n[nH]c3c2)cc(N2C[C@@H](C(=O)NC3CCCCC3)CC[C@H]2C)n1
Outline: as §1

encorafenib = compound: COC(=O)N[C@@H](C)CNc1nccc(-c2cn(C(C)C)nc2-c2cc(Cl)cc(NS(C)(=O)=O)c2F)n1 [encorafenib]
Outline: as §1

[10] = compound: COC(=O)[C@H](CCSC)NC(=O)C1=C(C=C(C=C1)NC[C@H](CS)N)C2=CC=CC=C2
Outline: as §1

Measured: log2 fold change

UBL7 (UniProt Q96S82)
inactive: [1] 0 | volasertib -0.156 | [2] 0.028 | epoxomicin 0.085 | [3] -0.005 | [4] 0.128 | [5] 0.061 | rosiglitazone 0.06 | [6] -0.13 | [7] 0.039 | saracatinib -0.152 | sotrastaurin -0.019 | alvocidib -0.105 | Tubastatin A 0.094 | [8] 0.042 | defactinib -0.043 | rucaparib -0.1 | [9] 0.015 | encorafenib 0.048 | [10] -0.146

UBXN4 (UniProt Q92575)
inactive: [1] -0.035 | volasertib -0.062 | [2] 0.024 | epoxomicin 0.033 | [3] 0.005 | [4] -0.07 | [5] 0.006 | rosiglitazone 0.016 | [6] -0.026 | [7] -0.068 | saracatinib -0.01 | sotrastaurin -0.01 | alvocidib 0.022 | Tubastatin A -0.013 | [8] -0.028 | defactinib -0.02 | rucaparib -0.003 | [9] -0.024 | encorafenib -0.011 | [10] 0.025

USF2 (UniProt Q15853)
inactive: [1] 0.102 | volasertib 0.006 | [2] -0.09 | epoxomicin 0.088 | [3] -0.125 | [4] 0.048 | [5] -0.058 | rosiglitazone -0.005 | [6] 0.15 | [7] -0.023 | saracatinib -0.021 | sotrastaurin -0.013 | alvocidib 0.048 | Tubastatin A -0.032 | [8] 0.003 | defactinib 0.127 | rucaparib 0.056 | [9] -0.036 | encorafenib 0.029 | [10] 0.024

USP39 (UniProt Q53GS9)
inactive: [1] 0.032 | volasertib 0.014 | [2] 0.009 | epoxomicin -0.087 | [3] 0.028 | [4] 0.014 | [5] -0.055 | rosiglitazone -0.026 | [6] 0.012 | [7] 0.031 | saracatinib 0.02 | sotrastaurin -0.027 | alvocidib 0.024 | Tubastatin A 0.01 | [8] 0 | defactinib 0.054 | rucaparib 0.053 | [9] -0.04 | encorafenib 0.037 | [10] 0.006

UCK2 (UniProt Q9BZX2)
inactive: [1] 0.043 | volasertib 0.011 | [2] -0.009 | epoxomicin 0.068 | [3] 0.004 | [4] 0.14 | [5] -0.032 | rosiglitazone 0 | [6] -0.073 | [7] -0.044 | saracatinib 0.076 | sotrastaurin 0.021 | alvocidib -0.038 | Tubastatin A 0.013 | [8] -0.076 | defactinib -0.024 | rucaparib -0.038 | [9] -0.013 | encorafenib -0.001 | [10] 0.005

USE1 (UniProt Q9NZ43)
inactive: [1] -0.047 | volasertib -0.112 | [2] 0.025 | epoxomicin 0.017 | [3] 0.026 | [4] 0.001 | [5] -0.022 | rosiglitazone 0.034 | [6] 0.038 | [7] 0.053 | saracatinib 0.075 | sotrastaurin -0.001 | alvocidib 0.001 | Tubastatin A -0.011 | [8] -0.02 | defactinib -0.055 | rucaparib 0.094 | [9] 0.031 | encorafenib 0.036 | [10] -0.065

VAPB (UniProt O95292)
inactive: [1] 0.006 | volasertib 0.046 | [2] 0.035 | epoxomicin 0.069 | [3] 0.009 | [4] -0.001 | [5] -0.001 | rosiglitazone 0 | [6] -0.042 | [7] 0.078 | saracatinib 0.011 | sotrastaurin 0.021 | alvocidib -0.042 | Tubastatin A -0.031 | [8] 0.008 | defactinib -0.022 | rucaparib -0.047 | [9] -0.003 | encorafenib -0.008 | [10] 0.016

UNC45A (UniProt Q9H3U1)
inactive: [1] -0.044 | volasertib -0.395 | [2] 0.058 | epoxomicin -0.014 | [3] -0.067 | [4] 0.04 | [5] 0.017 | rosiglitazone 0.081 | [6] 0.157 | [7] -0.104 | saracatinib -0.079 | sotrastaurin -0.244 | alvocidib 0.002 | Tubastatin A 0.002 | [8] 0.028 | defactinib -0.045 | rucaparib 0.23 | [9] 0.084 | encorafenib 0.133 | [10] -0.095

UQCRC1 (UniProt P31930)
inactive: [1] -0.019 | volasertib 0.057 | [2] -0.024 | epoxomicin 0.032 | [3] -0.009 | [4] 0.002 | [5] -0.024 | rosiglitazone 0.008 | [6] -0.049 | [7] 0.012 | saracatinib 0.013 | sotrastaurin 0.011 | alvocidib -0.006 | Tubastatin A -0.013 | [8] -0.032 | defactinib -0.029 | rucaparib -0.004 | [9] -0.051 | encorafenib -0.033 | [10] 0.014

VAT1 (UniProt Q99536)
inactive: [1] 0.028 | volasertib 0.078 | [2] 0.036 | epoxomicin 0.011 | [3] 0.02 | [4] -0.032 | [5] 0.008 | rosiglitazone 0.004 | [6] -0.062 | [7] 0.143 | saracatinib 0.02 | sotrastaurin 0.028 | alvocidib -0.026 | Tubastatin A -0.005 | [8] 0.004 | defactinib -0.026 | rucaparib -0.007 | [9] 0.01 | encorafenib -0.021 | [10] 0.012

2 consecutive records out of the list so far, for reference:
USE1 (UniProt Q9NZ43)
inactive: [1] -0.047 | volasertib -0.112 | [2] 0.025 | epoxomicin 0.017 | [3] 0.026 | [4] 0.001 | [5] -0.022 | rosiglitazone 0.034 | [6] 0.038 | [7] 0.053 | saracatinib 0.075 | sotrastaurin -0.001 | alvocidib 0.001 | Tubastatin A -0.011 | [8] -0.02 | defactinib -0.055 | rucaparib 0.094 | [9] 0.031 | encorafenib 0.036 | [10] -0.065

VAPB (UniProt O95292)
inactive: [1] 0.006 | volasertib 0.046 | [2] 0.035 | epoxomicin 0.069 | [3] 0.009 | [4] -0.001 | [5] -0.001 | rosiglitazone 0 | [6] -0.042 | [7] 0.078 | saracatinib 0.011 | sotrastaurin 0.021 | alvocidib -0.042 | Tubastatin A -0.031 | [8] 0.008 | defactinib -0.022 | rucaparib -0.047 | [9] -0.003 | encorafenib -0.008 | [10] 0.016

Going on with the list:

UQCC2 (UniProt Q9BRT2)
inactive: [1] 0.059 | volasertib 0.027 | [2] -0.034 | epoxomicin -0.025 | [3] 0.056 | [4] 0.11 | [5] 0.037 | rosiglitazone -0.004 | [6] 0.073 | [7] -0.07 | saracatinib -0.042 | sotrastaurin -0.013 | alvocidib 0.031 | Tubastatin A 0.003 | [8] -0.016 | defactinib -0.03 | rucaparib -0.033 | [9] -0.05 | encorafenib -0.036 | [10] 0.036

UROS (UniProt P10746)
inactive: [1] -0.06 | volasertib -0.075 | [2] 0.035 | epoxomicin 0.08 | [3] 0.025 | [4] -0.063 | [5] 0.044 | rosiglitazone 0.02 | [6] -0.042 | [7] -0.012 | saracatinib -0.06 | sotrastaurin -0.041 | alvocidib -0.043 | Tubastatin A -0.018 | [8] -0.019 | defactinib -0.082 | rucaparib 0.097 | [9] 0.045 | encorafenib 0.015 | [10] 0.011

UBR5 (UniProt O95071)
inactive: [1] -0.028 | volasertib -0.298 | [2] 0.07 | epoxomicin -0.148 | [3] -0.007 | [4] 0.061 | [5] -0.002 | rosiglitazone 0.003 | [6] 0.112 | [7] 0.023 | saracatinib 0.014 | sotrastaurin -0.149 | alvocidib -0.005 | Tubastatin A -0.048 | [8] 0.062 | defactinib -0.03 | rucaparib -0.015 | [9] -0.098 | encorafenib 0.101 | [10] 0

VAPA (UniProt Q9P0L0)
inactive: [1] 0.032 | volasertib 0.068 | [2] -0.02 | epoxomicin 0.005 | [3] -0.044 | [4] 0.118 | [5] -0.021 | rosiglitazone 0.022 | [6] -0.034 | [7] 0.129 | saracatinib 0.007 | sotrastaurin 0.01 | alvocidib -0.033 | Tubastatin A 0.012 | [8] 0.071 | defactinib -0.022 | rucaparib -0.169 | [9] -0.023 | encorafenib 0.025 | [10] 0.02

UPF2 (UniProt Q9HAU5)
inactive: [1] 0.168 | volasertib 0.039 | [2] 0.051 | epoxomicin -0.202 | [3] -0.178 | [4] 0.094 | [5] -0.046 | rosiglitazone -0.033 | [6] 0.321 | [7] 0.083 | saracatinib -0.108 | sotrastaurin -0.038 | alvocidib 0.21 | Tubastatin A 0.073 | [8] -0.081 | defactinib 0.354 | rucaparib 0.381 | [9] 0.115 | encorafenib 0.193 | [10] -0.002

VAPA isoform 2 (UniProt Q9P0L0)
inactive: [1] 0.008 | volasertib 0.073 | [2] -0.034 | epoxomicin -0.025 | [3] -0.014 | [4] 0 | [5] -0.038 | rosiglitazone 0 | [6] -0.041 | [7] 0.129 | saracatinib 0.019 | sotrastaurin 0.025 | alvocidib 0.025 | Tubastatin A 0.003 | [8] 0.03 | defactinib 0.001 | rucaparib -0.066 | [9] -0.019 | encorafenib 0.003 | [10] 0.061
